Reference: the supplement of paper PMC8728848
Some of the results follow.

Key:
Experiment in all cases: glycan array binding signal (z-score within array); higher = stronger binding
Conditions in all cases: glycan notation: IUPAC condensed, linker removed
[1] = target: Gal(b1-4)GlcNAc(b1-3)Gal(b1-4)GlcNAc(b1-6)[Gal(b1-3)]GalNAc
Procedure, shortened: (§1)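 Glycan array data came from 3228 arrays in the Consortium for Functional Glycomics database, and only arrays with an available protein sequence were kept. Glycan names were put into IUPAC-condensed notation, and columns mapping to the same glycan were averaged. The binding signal is a within-array Z-score, averaged across arrays of one protein sequence run at different concentrations or buffers and across linkers. A negative Z-score can be read as non-binding.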

[2] = target: Gal(b1-4)GlcNAc(b1-3)Gal(b1-4)[Fuc(a1-3)]GlcNAc(b1-3)Gal(b1-4)[Fuc(a1-3)]GlcNAc
Procedure, shortened: as §1

[3] = target: Gal(b1-4)GlcNAc(b1-3)GalNAc
Procedure, shortened: as §1

[4] = target: Gal(b1-4)GlcNAc(b1-3)[Fuc(a1-3)GlcNAc(b1-6)]Gal(b1-4)Glc
Procedure, shortened: as §1

[5] = target: Gal(b1-4)GlcNAc(b1-3)[Gal(b1-4)GlcNAc(b1-6)]Gal(b1-4)GlcNAc
Procedure, shortened: as §1

[6] = target: Gal(b1-4)GlcNAc(b1-3)[GlcNAc(b1-6)]Gal(b1-4)GlcNAc
Procedure, shortened: as §1

[7] = target: Gal(b1-4)GlcNAc(b1-6)Gal(b1-4)GlcNAc
Procedure, shortened: as §1

[8] = target: Gal(b1-4)GlcNAc(b1-6)GalNAc
Procedure, shortened: as §1

[9] = target: Gal(b1-4)GlcNAc(b1-6)[Gal(b1-3)]GalNAc
Procedure, shortened: as §1

[10] = target: Gal(b1-4)GlcNAc(b1-6)[Gal(b1-4)GlcNAc(b1-3)]GalNAc
Procedure, shortened: as §1

Gal(b1-4)GlcNAc6P = target: Gal(b1-4)GlcNAc6P
Procedure, shortened: as §1

Gal(b1-6)Gal = target: Gal(b1-6)Gal
Procedure, shortened: as §1

Gal3S(b1-3)GalNAc = target: Gal3S(b1-3)GalNAc
Procedure, shortened: as §1

Gal3S(b1-3)GlcNAc = target: Gal3S(b1-3)GlcNAc
Procedure, shortened: as §1

[11] = target: Gal3S(b1-3)[Fuc(a1-4)]GlcNAc
Procedure, shortened: as §1

Gal3S(b1-4)Glc = target: Gal3S(b1-4)Glc
Procedure, shortened: as §1

Gal3S(b1-4)Glc6S = target: Gal3S(b1-4)Glc6S
Procedure, shortened: as §1

Gal3S(b1-4)GlcNAc = target: Gal3S(b1-4)GlcNAc
Procedure, shortened: as §1

[12] = target: Gal3S(b1-4)[Fuc(a1-3)]Glc6S
Procedure, shortened: as §1

[13] = target: Gal3S(b1-4)[Fuc(a1-3)]GlcNAc
Procedure, shortened: as §1

[14] = target: Gal3S(b1-4)[Fuc(a1-3)]GlcNAc6S
Procedure, shortened: as §1

Gal3S4S(b1-4)GlcNAc = target: Gal3S4S(b1-4)GlcNAc
Procedure, shortened: as §1

Gal3S6S(b1-4)GlcNAc = target: Gal3S6S(b1-4)GlcNAc
Procedure, shortened: as §1

Gal3S6S(b1-4)GlcNAc6S = target: Gal3S6S(b1-4)GlcNAc6S
Procedure, shortened: as §1

Gal4S(b1-4)GlcNAc = target: Gal4S(b1-4)GlcNAc
Procedure, shortened: as §1

Gal4S6S(b1-4)GlcNAc = target: Gal4S6S(b1-4)GlcNAc
Procedure, shortened: as §1

Gal6P(b1-4)GlcNAc = target: Gal6P(b1-4)GlcNAc
Procedure, shortened: as §1

Gal6S(b1-3)GlcNAc = target: Gal6S(b1-3)GlcNAc
Procedure, shortened: as §1

Gal6S(b1-3)GlcNAc6S = target: Gal6S(b1-3)GlcNAc6S
Procedure, shortened: as §1

Gal6S(b1-4)Glc = target: Gal6S(b1-4)Glc
Procedure, shortened: as §1

Gal6S(b1-4)Glc6S = target: Gal6S(b1-4)Glc6S
Procedure, shortened: as §1

Gal6S(b1-4)GlcNAc = target: Gal6S(b1-4)GlcNAc
Procedure, shortened: as §1

Gal6S(b1-4)GlcNAc6S = target: Gal6S(b1-4)GlcNAc6S
Procedure, shortened: as §1

GalNAc(a1-3)Gal = target: GalNAc(a1-3)Gal
Procedure, shortened: as §1

GalNAc(a1-3)GalNAc = target: GalNAc(a1-3)GalNAc
Procedure, shortened: as §1

[15] = target: GalNAc(a1-3)GalNAc(b1-3)Gal(a1-4)Gal(b1-4)Glc
Procedure, shortened: as §1

[16] = target: GalNAc(a1-3)GalNAc(b1-3)Gal(a1-4)Gal(b1-4)GlcNAc
Procedure, shortened: as §1

GalNAc(b1-3)Gal = target: GalNAc(b1-3)Gal
Procedure, shortened: as §1

[17] = target: GalNAc(b1-3)Gal(a1-4)Gal(b1-4)GlcNAc
Procedure, shortened: as §1

[18] = target: GalNAc(b1-3)Gal(a1-4)Gal(b1-4)GlcNAc(b1-3)Gal(b1-4)Glc
Procedure, shortened: as §1

[19] = target: GalNAc(b1-3)Gal(a1-6)Gal(b1-4)Glc
Procedure, shortened: as §1

GalNAc(b1-3)GalNAc = target: GalNAc(b1-3)GalNAc
Procedure, shortened: as §1

GalNAc(b1-3)GlcNAc = target: GalNAc(b1-3)GlcNAc
Procedure, shortened: as §1

GalNAc(b1-4)Gal(b1-4)Glc = target: GalNAc(b1-4)Gal(b1-4)Glc
Procedure, shortened: as §1

GalNAc(b1-4)GlcNAc = target: GalNAc(b1-4)GlcNAc
Procedure, shortened: as §1

B1: FimA-N2 (Actinomyces oris) (protein)
chain: MHHHHHHSSGVDLGTENLYFQSNAWIYDVNVYPKNEAIDVDKTIQAQKLNGYGVGSLIKFPVESTAPTLDAKSFYKYFQLKDTLDERLSEVTATDVSLEGTPLQPTDYKVETKQQTVTVTFTAEGLKKIKAAPGKKVSAVFQGKVTKAGNGAITNRAQVISDTLYAEQPPTPETPPTDPENPPTSDEVISRWGDLSIKKVDTHQQGQTKA
**Q.** How did the “glycan array binding signal (z-score)” value [1] turn out when B1 was run?
**A.** Its value is 0.785.

**Q.** And the “glycan array binding signal (z-score)” value [2]?
**A.** The value was 1.91.

**Q.** And the “glycan array binding signal (z-score)” value [3]?
**A.** The value was -0.038.

**Q.** What about the “glycan array binding signal (z-score)” value [4] of the same binder?
**A.** Its value is -0.443.

**Q.** What about the “glycan array binding signal (z-score)” value [5] of the same binder?
**A.** Its value is -0.505.

**Q.** And the “glycan array binding signal (z-score)” value [6]?
**A.** The value was -0.725.

**Q.** And the “glycan array binding signal (z-score)” value [7]?
**A.** The value was -0.5.

**Q.** And the “glycan array binding signal (z-score)” value [8]?
**A.** Its value is -0.06.

**Q.** And the “glycan array binding signal (z-score)” value [9]?
**A.** Its value is -0.116.

**Q.** What about the “glycan array binding signal (z-score)” value [10] of the same binder?
**A.** The value was 0.181.

**Q.** And the “glycan array binding signal (z-score)” value (Gal(b1-4)GlcNAc6P)?
**A.** The value was 0.958.

**Q.** And the “glycan array binding signal (z-score)” value (Gal(b1-6)Gal)?
**A.** The value was -1.05.

**Q.** And the “glycan array binding signal (z-score)” value (Gal3S(b1-3)GalNAc)?
**A.** Its value is 0.907.

**Q.** And the “glycan array binding signal (z-score)” value (Gal3S(b1-3)GlcNAc)?
**A.** Its value is 0.697.

**Q.** And the “glycan array binding signal (z-score)” value [11]?
**A.** The value was 0.427.

**Q.** What about the “glycan array binding signal (z-score)” value (Gal3S(b1-4)Glc) of the same binder?
**A.** Its value is 0.216.

**Q.** And the “glycan array binding signal (z-score)” value (Gal3S(b1-4)Glc6S)?
**A.** Its value is 0.583.

**Q.** What about the “glycan array binding signal (z-score)” value (Gal3S(b1-4)GlcNAc) of the same binder?
**A.** The value was 2.69.

**Q.** And the “glycan array binding signal (z-score)” value [12]?
**A.** Its value is 3.08.

**Q.** And the “glycan array binding signal (z-score)” value [13]?
**A.** Its value is 1.28.

**Q.** What about the “glycan array binding signal (z-score)” value [14] of the same binder?
**A.** Its value is 0.518.

**Q.** And the “glycan array binding signal (z-score)” value (Gal3S4S(b1-4)GlcNAc)?
**A.** The value was -0.611.

**Q.** What about the “glycan array binding signal (z-score)” value (Gal3S6S(b1-4)GlcNAc) of the same binder?
**A.** Its value is 0.796.

**Q.** What about the “glycan array binding signal (z-score)” value (Gal3S6S(b1-4)GlcNAc6S) of the same binder?
**A.** Its value is 0.502.

**Q.** What about the “glycan array binding signal (z-score)” value (Gal4S(b1-4)GlcNAc) of the same binder?
**A.** The value was 3.9.

**Q.** And the “glycan array binding signal (z-score)” value (Gal4S6S(b1-4)GlcNAc)?
**A.** Its value is 0.235.

**Q.** And the “glycan array binding signal (z-score)” value (Gal6P(b1-4)GlcNAc)?
**A.** Its value is -0.517.

**Q.** What about the “glycan array binding signal (z-score)” value (Gal6S(b1-3)GlcNAc) of the same binder?
**A.** The value was -0.866.

**Q.** What about the “glycan array binding signal (z-score)” value (Gal6S(b1-3)GlcNAc6S) of the same binder?
**A.** Its value is -0.204.

**Q.** And the “glycan array binding signal (z-score)” value (Gal6S(b1-4)Glc)?
**A.** Its value is 1.79.

**Q.** And the “glycan array binding signal (z-score)” value (Gal6S(b1-4)Glc6S)?
**A.** The value was -0.257.

**Q.** What about the “glycan array binding signal (z-score)” value (Gal6S(b1-4)GlcNAc) of the same binder?
**A.** Its value is -0.518.

**Q.** What about the “glycan array binding signal (z-score)” value (Gal6S(b1-4)GlcNAc6S) of the same binder?
**A.** Its value is -0.917.

**Q.** What about the “glycan array binding signal (z-score)” value (GalNAc(a1-3)Gal) of the same binder?
**A.** Its value is 0.771.

**Q.** What about the “glycan array binding signal (z-score)” value (GalNAc(a1-3)GalNAc) of the same binder?
**A.** Its value is 0.547.

**Q.** What about the “glycan array binding signal (z-score)” value [15] of the same binder?
**A.** The value was -0.857.

**Q.** What about the “glycan array binding signal (z-score)” value [16] of the same binder?
**A.** Its value is -0.239.

**Q.** What about the “glycan array binding signal (z-score)” value (GalNAc(b1-3)Gal) of the same binder?
**A.** Its value is 2.41.

**Q.** And the “glycan array binding signal (z-score)” value [17]?
**A.** The value was 2.19.

**Q.** What about the “glycan array binding signal (z-score)” value [18] of the same binder?
**A.** Its value is 1.53.

**Q.** What about the “glycan array binding signal (z-score)” value [19] of the same binder?
**A.** The value was 0.567.

**Q.** What about the “glycan array binding signal (z-score)” value (GalNAc(b1-3)GalNAc) of the same binder?
**A.** Its value is -1.14.

**Q.** What about the “glycan array binding signal (z-score)” value (GalNAc(b1-3)GlcNAc) of the same binder?
**A.** The value was -0.555.

**Q.** And the “glycan array binding signal (z-score)” value (GalNAc(b1-4)Gal(b1-4)Glc)?
**A.** The value was 0.367.

**Q.** And the “glycan array binding signal (z-score)” value (GalNAc(b1-4)GlcNAc)?
**A.** The value was 1.21.
